For four compounds, EC50 results are on record in US20250206757A1 (GASHERBRUM BIO, INC., priority 2022, published 2025).

By UniProt entry, the sequences of proteins in these tests, tags left out. Residues count along the entry.
UniProt P43220, 24-463 limits assumed: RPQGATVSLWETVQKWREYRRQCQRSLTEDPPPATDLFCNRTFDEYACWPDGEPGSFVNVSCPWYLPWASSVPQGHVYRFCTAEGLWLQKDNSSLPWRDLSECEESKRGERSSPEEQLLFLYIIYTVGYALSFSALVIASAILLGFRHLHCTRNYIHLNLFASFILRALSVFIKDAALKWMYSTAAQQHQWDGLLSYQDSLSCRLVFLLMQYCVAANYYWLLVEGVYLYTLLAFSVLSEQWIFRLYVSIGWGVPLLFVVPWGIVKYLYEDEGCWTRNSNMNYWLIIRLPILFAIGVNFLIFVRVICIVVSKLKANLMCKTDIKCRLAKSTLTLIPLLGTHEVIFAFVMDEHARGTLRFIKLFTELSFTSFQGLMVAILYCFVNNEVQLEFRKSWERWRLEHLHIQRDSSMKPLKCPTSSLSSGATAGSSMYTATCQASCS

SMILES strings stand for the structures. The match of structure and compound is tentative.

This experiment addresses GLP-1 Receptor (Homo sapiens, UniProt P43220). As to the kind of experiment: GLP-1R agonist cAMP stimulation assay (HEK293/GLP1R/CRE-LUC cells, HTRF cAMP dynamic 2 kit). Particulars: read-out: Activity (EC50, GLP-1R agonist cAMP stimulation); HEK293/CRE-Luc cell line stably expressing the GLP-1 Receptor; 30 min incubation at 37° C. The procedure:
Activation of GLP-1 receptor is known to stimulate cyclic AMP (cAMP) production in cells which indicates primary coupling to the Gas subunit of the G protein heterotrimeric complex.
To optimize functional activity directed toward Gas coupling, a HEK293/CRE-Luc cell line developed by HDB stably expressing the GLP-1 Receptor was used. 200× concentration of compound working solutions were prepared (Agilent Technologies Bravo) with 1/2 log serial dilution in 384-well Echo LDV plate (Labcyte, Cat #LP-0200). 50 nL/well 200× concentration of compound working solutions were moved to 384-well white low volume plate (Greiner, Cat #784075) using Labcyte ECHO550. 1×10^5 cells/mL HEK293/GLP1R/CRE-LUC (HD Biosciences) cell suspensions prepared with assay buffer [DPBS containing 0.5 mM IBMX (Sigma, Cat #15879) and 0.10% BSA (GENVIEW, Cat #FA016-100g)], 10 μL cell suspensions were added to each well of previous generated assay plate which already contains 50 nL compound at 200× concentration using ThermoFisher Multidrop Combi (1000 cells/well). Seal the plate and incubate at 37° C. with 5% CO2 for 30 min.
After incubation the cAMP assay signal was generated using cAMP dynamic 2 Kit (Cisbio). 5 μL cAMP-d2 working solution was added to each well, followed with 5 μL Anti-cAMP antibody-cryptate working solution added to each well using ThermoFisher Multidrop Combi. Incubate at room temperature for 1 hour protected from light. Read the fluorescence at 665 and 615 nm with Reader PerkinElmer EnVision.
For the compound `N#Cc1nnc(-c2cc3nc(CN4CCc5cc(C(F)(F)F)c(OCc6ccc(Cl)cc6)nc5C4)n(C[C@@H]4CCO4)c3cn2)[nH]1`, the EC50 was < 1 nM.

Turning to `O=c1[nH]c(-c2cc3nc(CN4CCc5cc(C(F)(F)F)c(OCc6ccc(Cl)cc6F)nc5C4)n(C[C@@H]4CCO4)c3cn2)no1`, the EC50 is < 1 nM. As for `O=c1[nH]cccc1-c1cc2nc(CN3CCc4cc(C(F)(F)F)c(OCc5ccc(Cl)cc5F)nc4C3)n(C[C@@H]3CCO3)c2cn1`, the EC50 was 1 to 300 nM. With `Fc1cc(Cl)ccc1COc1nc2c(cc1C(F)(F)F)CCN(Cc1nc3cc(-c4nnc(C(F)F)[nH]4)ncc3n1C[C@@H]1CCO1)C2` the figure was < 1 nM.
